According to paper doi:10.1101/2025.05.06.652320:
Results are given in words; binding and its absence hold for the method and conditions named. In cells and extracts the contact can be indirect. A yes stands for co-enrichment or nearness to the bait. Other partners may have been found.

Sequences of proteins named here, by UniProt entry; tags and fusion partners are left off. A change or cut given only in a name is not applied to a line headed by its entry.
UniProt P0DTD2, whole entry, stated change not applied: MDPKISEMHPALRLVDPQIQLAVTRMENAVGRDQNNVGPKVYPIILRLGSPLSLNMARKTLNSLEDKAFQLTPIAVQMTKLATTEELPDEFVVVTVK

B1: E3 ubiquitin ligase RNF123 (protein, UniProt Q5XPI4 1-1314)
chain: MASKGAGMSFSRKSYRLTSDAEKSRVTGIVQEKLLNDYLNRIFSSSEHAPPAATSRKPLNFQNLPEHLDQLLQVDNEEEESQGQVEGRLGPSTVVLDHTGGFEGLLLVDDDLLGVIGHSNFGTIRSTTCVYKGKWLYEVLISSQGLMQIGWCTISCRFNQEEGVGDTHNSYAYDGNRVRKWNVTTTNYGKAWAAGDIVSCLIDLDDGTLSFCLNGVSLGTAFENLSRGLGMAYFPAISLSFKESVAFNFGSRPLRYPVAGYRPLQDPPSADLVRAQRLLGCFRAVLSVELDPVEGRLLDKESSKWRLRGQPTVLLTLAHIFHHFAPLLRKVYLVEAVLMSFLLGIVEKGTPTQAQSVVHQVLDLLWLFMEDYEVQDCLKQLMMSLLRLYRFSPIVPDLGLQIHYLRLTIAILRHEKSRKFLLSNVLFDVLRSVVFFYIKSPLRVEEAGLQELIPTTWWPHCSSREGKESTEMKEETAEERLRRRAYERGCQRLRKRIEVVEELQVQILKLLLDNKDDNGGEASRYIFLTKFRKFLQENASGRGNMPMLCPPEYMVCFLHRLISALRYYWDEYKASNPHASFSEEAYIPPQVFYNGKVDYFDLQRLGGLLSHLRKTLKDDLASKANIVIDPLELQSTAMDDLDEDEEPAPAMAQRPMQALAVGGPLPLPRPGWLSSPTLGRANRFLSTAAVSLMTPRRPLSTSEKVKVRTLSVEQRTREDIEGSHWNEGLLLGRPPEEPEQPLTENSLLEVLDGAVMMYNLSVHQQLGKMVGVSDDVNEYAMALRDTEDKLRRCPKRRKDILAELTKSQKVFSEKLDHLSRRLAWVHATVYSQEKMLDIYWLLRVCLRTIEHGDRTGSLFAFMPEFYLSVAINSYSALKNYFGPVHSMEELPGYEETLTRLAAILAKHFADARIVGTDIRDSLMQALASYVCYPHSLRAVERIPEEQRIAMVRNLLAPYEQRPWAQTNWILVRLWRGCGFGYRYTRLPHLLKTKLEDANLPSLQKPCPSTLLQQHMADLLQQGPDVAPSFLNSVLNQLNWAFSEFIGMIQEIQQAAERLERNFVDSRQLKVCATCFDLSVSLLRVLEMTITLVPEIFLDWTRPTSEMLLRRLAQLLNQVLNRVTAERNLFDRVVTLRLPGLESVDHYPILVAVTGILVQLLVRGPASEREQATSVLLADPCFQLRSICYLLGQPEPPAPGTALPAPDRKRFSLQSYADYISADELAQVEQMLAHLTSASAQAAAASLPTSEEDLCPICYAHPISAVFQPCGHKSCKACINQHLMNNKDCFFCKTTIVSVEDWEKGANTSTTSSAA

Target: ORF9B–Twin-Strep-tag (SARS-CoV-2 ORF9B, C-terminally Twin-Strep-tagged) (SARS-CoV-2) (UniProt P0DTD2)
Assay: proximity labelling

Molecule	binding
DNA damage checkpoint kinase CHEK2 (from UniProt O96017 1-543)	binds
casein kinase CSNK2A1 (from UniProt P68400 1-391)	binds
glycosyltransferase POMGNT1 (from UniProt Q8WZA1 1-660)	binds
proteasomal subunit PSMD12 (from UniProt O00232 1-456)	binds
proteasomal subunit PSMD13 (from UniProt Q9UNM6 1-376)	binds
B1	binds
